The list shows a part of the results. Further columns of the screen follow, without active or inactive calls. Compounds called inactive in the main read-out are mostly missing here. The note in brackets gives the kind of curve behind each potency; many fits are weak.

The nature of the experiment: qHTS Assay for Modulators of Lamin A Splicing. The conditions noted are these: HeLa LMNA splicing GFP/RFP minigene ratio, 48 h. An outline of the steps:
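S3 HeLa stable clones carrying a lamin A-EGFP splicing minigene plus DsRed2 were seeded at 600 cells/well in Opti-MEM with 2% FBS, pin-dosed and incubated 48 h at 37°C. Acumen cytometry (488 nm) gave the GFP/RFP total-intensity ratio.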
(Quantitative high-throughput screening tests each substance at several concentrations.)

The mark [1] stands for this setting: measured here: GFP splicing reporter channel.
The mark [2] stands for this setting: measured here: RFP viability control channel.

What is called AC50 is the concentration giving half of the maximal activity seen. `COc1ccc(OC)c(Nc2ncnc3c2cnn3-c2ccc(C)cc2)c1`: the AC50 under setting [1] is 0.00708 µM [falling, full curve, poor fit]. As to `NCCc1ccc(O)c(O)c1`, under setting [2], the half-maximal activity concentration (AC50) is 5.62 µM [falling, single point]. Consider `COc1cc(OC)cc(C(=O)Nc2ccc3c(c2)N(C2CCCC2)C(=O)c2ccccc2S3)c1`, for which the AC50 is 15.8 µM [falling, partial curve, poor fit] under setting [1] and 2.82 µM [rising, full curve] under setting [2]. On to `Cc1sc2c(c1C)C(=O)NC(c1cccc(O)c1)N2` (stereo not given), for which the AC50 under setting [2] is 2.24 µM [falling, partial curve, poor fit]. `O=C(NCc1ccc2c(c1)OCO2)C1CCN(S(=O)(=O)N2CCCCC2)CC1`: the AC50 under setting [1] was 20 µM [rising, partial curve, poor fit].

In the case of `CC(=O)c1cn(C)c(=O)[nH]c1=O`, the AC50 under setting [1] is 0.501 µM [falling, full curve, poor fit]. As for `FC(F)Sc1ccc(NC(=S)NCc2ccccc2)cc1`, the AC50 under setting [2] was 17.8 µM [rising, single point].

As for `O=C(CSc1nnc(-c2cccnc2)n1Cc1ccco1)Nc1nc(-c2ccc(F)cc2)cs1`, the AC50 was 22.4 µM [rising, single point] under setting [1] and 17.8 µM [rising, single point] under setting [2]. `CCOc1ccc(-c2nnc(SCC(=O)NCc3ccccc3)nc2-c2ccc(OCC)c(OC)c2)cc1OC`: the AC50 under setting [2] is 0.224 µM [rising, partial curve, poor fit]. `O=C(C1=C(O)C(=O)N(CCCN2CCOCC2)C1c1ccccn1)c1cccs1` (stereo not given): the AC50 under setting [1] is 5.62 µM [rising, partial curve] and the AC50 under setting [2] was 10 µM [rising, partial curve, poor fit].

As to `COc1cc(C(=O)Nc2ccc(S(=O)(=O)N3CCCCC3C)cc2)cc(OC)c1OC` (stereo not given), the AC50 under setting [1] was 1.58 µM [falling, partial curve, poor fit]. Consider `CCC(=O)NCC(c1ccc2c(c1)OCO2)N1CCN(c2ccccc2)CC1` (stereo not given), for which the AC50 under setting [2] is 11.2 µM [falling, partial curve, poor fit]. Consider `O=C(CN1CCOCC1)N(c1ccccc1)c1ccc2ccccc2c1`, for which the AC50 under setting [1] is 10 µM [rising, partial curve, poor fit] and the AC50 under setting [2] was 15.8 µM [rising, partial curve, poor fit].

Take `COc1ccc(-c2[nH]nc3nc(-c4cc(OC)c(OC)c(OC)c4)cc(C(=O)O)c23)cc1`: the AC50 under setting [2] is 12.6 µM [rising, partial curve]. The same measure, in the same setting: in the case of `O=C1C(Cc2ccc(F)cc2)SC(=Nc2ccccc2)N1c1ccccc1` (stereo not given) it was 10 µM [rising, partial curve]. As for `Cn1c(SCCCC(=O)c2ccc(Br)cc2)nnc1-c1ccncc1`, the AC50 was 35.5 µM [rising, single point] under setting [1] and 35.5 µM [rising, single point] under setting [2]. On to `COc1cccc(-n2c(N)c(C#N)c3ccc([N+](=O)[O-])cc3c2=O)c1`, for which the AC50 under setting [2] is 7.94 µM [rising, partial curve, poor fit]. Still for that read-out and setting: then `CCCS(=O)(=O)N1CCCC(C(=O)NCCCOC)C1` (stereo not given), with 0.00316 µM [falling, full curve, poor fit]; and `C=CCSc1nc(-c2ccc(OC)cc2)c(C#N)c(=O)n1CC=C`, with 7.08 µM [falling, single point]. Take `c1ccc(CNc2ncncc2-c2ccoc2)cc1`: under setting [1], the AC50 was 7.94 µM [falling, partial curve]. On the same count and under the same terms, then `CCN(CC)CCN(C(=O)c1ccc([N+](=O)[O-])cc1)c1nc2ccc(OC)cc2s1`, with 0.0708 µM [rising, full curve, poor fit]. Take `CCCCn1c(CN2CCN(c3ccccc3)CC2)nc2c1c(=O)n(C)c(=O)n2C`: the concentration at half-maximal activity (AC50) under setting [1] is 2.82 µM [rising, full curve] and the half-maximal activity concentration (AC50) under setting [2] is 3.16 µM [rising, full curve]. As for `CCCN=C1CC(C)(C)CC(=O)/C1=C(/O)CCC`, the AC50 under setting [2] was 0.0447 µM [falling, full curve, poor fit]. For `O=C(NNc1nc(-c2ccccc2)cs1)c1ccc(F)cc1`, the AC50 under setting [2] is 11.2 µM [rising, partial curve]. As to `O=C(Nc1nc(-c2cc3ccccc3o2)cs1)c1ccc(S(=O)(=O)N2CCCC2)cc1`, the AC50 was 6.31 µM [rising, partial curve, poor fit] under setting [1] and 3.98 µM [rising, partial curve] under setting [2]. For the compound `Cc1ccc(-c2cc(C(=O)N3CCN(S(=O)(=O)c4ccc(Br)cc4)CC3)[nH]n2)cc1C`, under setting [2], the concentration at half-maximal activity (AC50) is 28.2 µM [falling, partial curve]. In the case of `CC(=O)NCCNc1ncnc2ccc(-c3c(C)noc3C)cc12`, the AC50 under setting [1] was 11.2 µM [falling, partial curve]. As for `O=C(Nc1cnn(Cc2ccc(Cl)c(Cl)c2)c1)c1nc2ncccn2n1`, the AC50 is 35.5 µM [rising, single point] under setting [1] and 31.6 µM [rising, single point] under setting [2]. In the case of `Cc1ccc(Nc2nnc(C)c(=O)[nH]2)cc1`, the AC50 is, setting by setting: under setting [1], 0.794 µM [rising, full curve]; under setting [2], 1.58 µM [rising, partial curve].

Take `COC(=O)c1cc(C)nc2c1c(=O)nc(SCc1cccc(C)c1)n2C1CC1`: the AC50 under setting [1] was 0.0251 µM [rising, full curve, poor fit].

As for `COc1cccc(OCC(=O)Nc2cc(Cl)ccc2Oc2ccccc2)c1`, the AC50 is, setting by setting: under setting [1], 12.6 µM [rising, single point]; under setting [2], 22.4 µM [rising, single point]. For the compound `CC1=CC2(O)OCCN(CCO)C2=CC1=O` (stereo not given), the AC50 is, setting by setting: under setting [1], 35.5 µM [falling, single point]; under setting [2], 35.5 µM [falling, single point].

Consider `CC(C)Cn1c(-c2csc3ccccc23)n[nH]c1=S`, for which the AC50 under setting [1] was 31.6 µM [rising, single point]. In the case of `O=C(Nc1ccc(N2CCC(c3ccccc3)C2)c(C(=O)O)c1)c1ccc(Cl)cc1` (stereo not given), the AC50 under setting [2] is 0.178 µM [falling, full curve, poor fit]. Still for that read-out and setting: in the case of `O=C(CN1CCCC1)Nc1ccc([N+](=O)[O-])cc1` it was 0.0355 µM [falling, full curve, poor fit]; in that of `NC(N)=NC(N)=Nc1ccccc1`, 5.62 µM [falling, single point].

As for `Cc1nc(Nc2nc(CSc3nc4ccccc4[nH]3)cc(=O)[nH]2)nc2ccccc12`, the AC50 was 35.5 µM [falling, single point] under setting [1] and 35.5 µM [falling, single point] under setting [2].

Consider `O=C(O)CCn1cc(/C=C/C(=O)c2ccc(Cl)cc2)c(-c2ccc(Br)cc2)n1`, for which the AC50 is 35.5 µM [falling, single point] under setting [1] and 3.98 µM [rising, partial curve] under setting [2]. In the case of `CC(C)c1cnc2c(c1SCC(=O)NCc1ccccc1)c(=O)n(C)c(=O)n2C`, the AC50 by setting is: under setting [1], 8.91 µM [rising, partial curve, poor fit]; under setting [2], 28.2 µM [rising, partial curve]. As to `COc1ccccc1Cc1nc2ccccc2nc1SCC(=O)Nc1cccc(Cl)c1C`, the AC50 under setting [1] was 0.126 µM [rising, full curve]. Turning to `COc1cc(CNn2cn[nH]c2=S)cc(Cl)c1OCc1ccc(F)cc1`, the AC50 under setting [2] was 1.26 µM [rising, partial curve, poor fit]. Consider `COc1cccc(/C=N/N2CCN(c3ccncc3S(=O)(=O)N3CCCCC3)CC2)c1`, for which the half-maximal activity concentration (AC50) is, setting by setting: under setting [1], 0.447 µM [rising, partial curve, poor fit]; under setting [2], 12.6 µM [rising, partial curve, poor fit]. `CCc1c(C#N)c(SCc2c(C)noc2C)nc2c1C(=O)CC(C)(C)C2`: the AC50 under setting [1] is 12.6 µM [rising, partial curve] and the AC50 under setting [2] was 15.8 µM [rising, single point]. As to `N#Cc1c(N)nc2c(c1-c1ccc3c(c1)OCO3)CCc1ccccc1-2`, the AC50 reads like this: under setting [1], 3.16 µM [falling, partial curve]; under setting [2], 2.82 µM [falling, partial curve].

`O=C(NCCN1CCN(S(=O)(=O)c2ccc([N+](=O)[O-])cc2)CC1)C(=O)Nc1ccccc1`: the AC50 under setting [2] was 0.0562 µM [rising, full curve, poor fit]. As for `O=C(Nc1nnc(CC2=CCCCC2)s1)c1cccs1`, the AC50 under setting [2] was 22.4 µM [rising, single point]. With `CN(C)S(=O)(=O)c1cccc(NC(=O)CSc2nc3ccccc3n2-c2ccccc2)c1`, the AC50 under setting [2] is 25.1 µM [rising, single point].

As to `Cc1ccc(CNC(=O)Cn2cc(S(=O)(=O)Cc3ccccc3F)c3ccccc32)cc1`, the AC50 was 12.6 µM [falling, single point] under setting [1] and 0.0398 µM [falling, full curve, poor fit] under setting [2].

In the case of `Cc1ccc(/C=N/N2CCN(c3ccccn3)CC2)cc1`, the AC50 under setting [1] is 11.2 µM [rising, partial curve]. For `O=S(=O)(CCOc1ccccc1)c1nc2ccccc2[nH]1`, under setting [1], the half-maximal activity concentration (AC50) was 28.2 µM [falling, single point]. For `CCn1c(=O)n(CC)c2cc(N3CCCCC3)c(NC(=O)Nc3ccccc3C(F)(F)F)cc21`, the concentration at half-maximal activity (AC50) under setting [2] was 0.112 µM [falling, full curve]. Take `O=C(OCC(=O)N1CCN(C(=O)c2ccco2)CC1)c1cc(-c2cccc(Br)c2)nc2ccccc12`: the AC50 under setting [2] was 22.4 µM [rising, single point].

As for `Cc1[nH]c2ccccc2c1SCc1nnc(SCc2ccc(Cl)cc2)n1C`, the AC50 reads like this: under setting [1], 35.5 µM [rising, single point]; under setting [2], 20 µM [rising, single point].

With `Cc1nnn(C23CC4CC(CC(CC(=O)Nc5ccc(C)c(Cl)c5)(C4)C2)C3)n1`, the AC50 was 8.91 µM [rising, partial curve] under setting [1] and 12.6 µM [rising, partial curve] under setting [2]. As to `COc1ccc2cc(/C=C3\SC(=S)NC3=O)c(N3CCOCC3)nc2c1`, the AC50 under setting [2] was 2.82 µM [rising, full curve].
